Measured values as given in patent US20130129725A1.
Positions count from the first letter of the chain named. No constants are given. Whether binding was seen depends on the method and setting. Some results given as binding are weak or reduced against the parent protein; the word gives no strength. Blank lines part the entries; values can stand above or below the binder they belong to.

Protein sequences, listed by entry. Tags and fused reporters are not part of them. Lines headed by an entry give the natural chain unless they say otherwise; changes in a name come on top.
UniProt P11362: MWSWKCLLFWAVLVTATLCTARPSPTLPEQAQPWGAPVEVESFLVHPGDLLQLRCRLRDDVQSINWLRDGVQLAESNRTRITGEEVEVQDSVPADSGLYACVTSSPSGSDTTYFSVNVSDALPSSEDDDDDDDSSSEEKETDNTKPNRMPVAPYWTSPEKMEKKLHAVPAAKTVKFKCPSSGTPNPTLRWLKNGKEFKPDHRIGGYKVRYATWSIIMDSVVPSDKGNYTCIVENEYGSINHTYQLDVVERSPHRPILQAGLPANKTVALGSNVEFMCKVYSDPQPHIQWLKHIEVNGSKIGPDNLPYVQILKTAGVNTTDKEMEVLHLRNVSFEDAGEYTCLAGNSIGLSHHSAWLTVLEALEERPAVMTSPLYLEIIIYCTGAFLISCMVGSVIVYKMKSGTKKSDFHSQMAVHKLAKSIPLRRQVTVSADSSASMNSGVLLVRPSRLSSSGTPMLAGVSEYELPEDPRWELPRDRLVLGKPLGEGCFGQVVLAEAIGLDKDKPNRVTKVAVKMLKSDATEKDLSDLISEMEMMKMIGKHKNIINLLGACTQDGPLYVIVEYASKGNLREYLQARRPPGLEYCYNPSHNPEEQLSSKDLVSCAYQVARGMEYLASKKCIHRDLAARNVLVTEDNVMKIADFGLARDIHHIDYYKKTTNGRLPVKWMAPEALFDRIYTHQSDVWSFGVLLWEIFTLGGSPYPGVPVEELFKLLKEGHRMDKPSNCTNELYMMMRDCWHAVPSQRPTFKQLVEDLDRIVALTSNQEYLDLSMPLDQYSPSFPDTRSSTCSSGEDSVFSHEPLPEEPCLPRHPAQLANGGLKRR
UniProt P16092: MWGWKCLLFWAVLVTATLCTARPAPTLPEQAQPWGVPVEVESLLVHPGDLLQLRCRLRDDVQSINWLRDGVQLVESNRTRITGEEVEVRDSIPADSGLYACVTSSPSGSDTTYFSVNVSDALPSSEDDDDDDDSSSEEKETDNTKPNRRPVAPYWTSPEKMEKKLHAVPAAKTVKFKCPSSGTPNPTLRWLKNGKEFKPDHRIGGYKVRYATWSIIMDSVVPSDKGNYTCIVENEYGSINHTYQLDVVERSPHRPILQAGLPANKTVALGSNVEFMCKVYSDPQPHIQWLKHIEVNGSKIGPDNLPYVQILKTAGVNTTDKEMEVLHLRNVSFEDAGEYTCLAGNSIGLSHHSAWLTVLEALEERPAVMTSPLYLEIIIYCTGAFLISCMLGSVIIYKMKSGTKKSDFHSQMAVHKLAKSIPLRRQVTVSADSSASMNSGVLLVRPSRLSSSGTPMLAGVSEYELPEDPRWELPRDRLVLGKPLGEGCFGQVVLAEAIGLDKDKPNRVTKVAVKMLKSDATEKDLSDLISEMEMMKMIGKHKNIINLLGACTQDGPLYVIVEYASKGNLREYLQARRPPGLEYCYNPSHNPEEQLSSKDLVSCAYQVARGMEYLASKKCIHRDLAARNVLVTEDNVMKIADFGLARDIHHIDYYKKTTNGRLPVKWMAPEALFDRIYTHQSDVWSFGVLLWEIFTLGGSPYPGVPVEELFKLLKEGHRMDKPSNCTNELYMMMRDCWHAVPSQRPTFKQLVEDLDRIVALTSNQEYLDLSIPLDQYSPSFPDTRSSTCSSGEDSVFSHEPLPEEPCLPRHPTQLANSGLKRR
UniProt Q86Z14: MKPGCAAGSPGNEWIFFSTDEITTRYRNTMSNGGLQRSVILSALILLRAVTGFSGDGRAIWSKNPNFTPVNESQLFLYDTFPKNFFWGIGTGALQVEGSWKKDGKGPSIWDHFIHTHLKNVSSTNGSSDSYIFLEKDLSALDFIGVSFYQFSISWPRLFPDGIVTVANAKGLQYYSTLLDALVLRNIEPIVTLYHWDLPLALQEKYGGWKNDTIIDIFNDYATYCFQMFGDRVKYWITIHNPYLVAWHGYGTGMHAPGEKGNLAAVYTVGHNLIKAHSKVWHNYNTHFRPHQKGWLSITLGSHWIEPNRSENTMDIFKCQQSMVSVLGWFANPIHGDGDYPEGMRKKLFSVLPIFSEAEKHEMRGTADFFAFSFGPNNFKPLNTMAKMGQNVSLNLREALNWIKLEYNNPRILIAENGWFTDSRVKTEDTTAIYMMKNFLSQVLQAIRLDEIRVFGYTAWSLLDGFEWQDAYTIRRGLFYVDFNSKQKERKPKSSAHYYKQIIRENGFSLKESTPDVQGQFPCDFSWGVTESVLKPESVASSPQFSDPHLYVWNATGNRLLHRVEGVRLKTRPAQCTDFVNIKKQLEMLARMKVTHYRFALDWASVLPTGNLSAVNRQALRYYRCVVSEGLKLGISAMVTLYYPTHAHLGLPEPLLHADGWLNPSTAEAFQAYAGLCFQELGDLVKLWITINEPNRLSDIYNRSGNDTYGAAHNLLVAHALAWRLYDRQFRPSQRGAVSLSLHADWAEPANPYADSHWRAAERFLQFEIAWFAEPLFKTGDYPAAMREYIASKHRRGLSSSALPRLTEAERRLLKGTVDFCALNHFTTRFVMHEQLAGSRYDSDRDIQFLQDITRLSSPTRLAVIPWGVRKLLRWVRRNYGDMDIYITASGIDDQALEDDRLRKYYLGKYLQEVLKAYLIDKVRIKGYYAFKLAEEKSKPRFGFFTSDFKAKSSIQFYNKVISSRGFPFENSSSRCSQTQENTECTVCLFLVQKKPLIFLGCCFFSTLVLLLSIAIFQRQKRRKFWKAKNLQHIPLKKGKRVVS

How the values were obtained:
[1] = biological target: human FGFR1c (hu-FGFR1c) (human) (UniProt P11362); assay: peptide library screen and ELISA on plate-coated FGFR1c (Example 6, anti-M13-HRP)
[2] = biological target: mu-FGFR1c-Fc (murine) (UniProt P16092); assay: ELISA (Example 10), antigen on plate (FIG. 13)
[3] = biological target: biotinylated hu-β-klotho (human) (UniProt Q86Z14); assay: Octet QK (BLI), biotinylated hu-β-klotho on streptavidin biosensors (Example 12, FIG. 9A)

- binding [1]: binds
- binding [2]: binds
Binder: YQAWGYYV [SR4]

- binding [1]: binds
Binder: YKAWGYYV [SR3]

- binding [1]: binds
- binding [2]: binds
Binder: HFKCGMGLFECADP [Rm40]

- binding [1]: binds
Binder: LARWGFWV [SR22]

- binding [3]: binds
B1: 10H3 (antibody, human IgG2, kappa, V domains shown)
VH: QVQLVQSGAEVRKPGASVKVSCKASGYTFTAYYMHWVRQAPGQGLEWMGWINPYSGGTNSAQKFQGRVTMTRDTSISTAYMELSWLRSDDTAVYYCARDATSGWFDFWGQGTLVTVSS
VL: DIVMTQTPLSSPVTLGQPASISCRSSQSLVHYDGNTYLSWLQQRPGQPPRLLIYKISNRFSGVPDRFSGSGAGTDFTLKISRVAAEDVGIYYCMQALEFPWTFGQGTKVEIKR

- binding [3]: binds
B2: 1B5 (antibody, human IgG2, kappa, V domains shown)
VH: B1 VH with R12K, Y54N, S77R, L113P
VL: B1 VL with S10T, A84E

- binding [3]: binds
B3: 3B4 (antibody, human IgG2, kappa, V domains shown)
VH: B1 VH with R12K, Y54N, S77R, F107I, L113P
VL: B1 VL with A84E

- binding [1]: binds
- binding [2]: binds
Binder: EWYCGVLFNCQQ [Rm26]

- binding [1]: binds
Binder: WELCASGYGWCYLH [Rm33]

- binding [1]: binds
Binder: YSAWSFWV [SR21]

- binding [1]: binds
Binder: TRLWKYWV [SR1]

- binding [1]: binds
Binder: YDAWGYWV [SR23]

- binding [1]: binds
Binder: WAERGG [SR11]

- binding [1]: binds
Binder: FTWVFWNV [SR7]

- binding [1]: binds
Binder: YKWLKWNL [SR9]

- binding [1]: binds
Binder: YVFYLWWK [SR17]

- binding [1]: binds
Binder: RRLYIFEW [SR10]

- binding [1]: binds
Binder: KRLYGLFWYD [SR25]

- binding [1]: binds
Binder: YRWLHWHV [SR18]

- binding [1]: binds
Binder: KKHWSSLFFE [SR26]

- binding [1]: binds
Binder: APSCKSYIGFGLYHCWDG [Rm37]

- binding [1]: binds
Binder: RRLYIFWE [SR2]

- binding [1]: binds
Binder: YQVWGYFV [SR8]

- binding [1]: binds
Binder: KAWPYSWEAV [SR27]

- binding [1]: binds
Binder: YQAWGYFV [SR6]

- binding [1]: binds
Binder: YKFLFWHA [SR19]

- binding [1]: binds
Binder: HFGCGVIFNCVSD [Rm27]

- binding [1]: binds
Binder: WRKYYHFWVS [SR24]

- binding [1]: binds
Binder: YQAWGYLV [SR5]

- binding [3]: binds
B4: 9D10 (antibody, human IgG2, lambda, V domains shown)
VH: QVQLVESGGGVVQPGRSLRLSCAASGFTFRSYGMHWVRQAPGKGLEWVAVIWYDGRNEYYADSVKGRFTISRDNSKNTLYLRMNSLRAEDTAVYYCARDHPVAGTSFDYWGQGTLVTVSS
VL: QSVLTQPPSVSAAPGQKVTISCSGSSSNIGNNYVSWYQQLPGTAPKLLIYDNNRRPSGIPDRFSGSKSGTSATLGITGLQTGDEADYYCGTWDSSLSAVVFGGGTKLTVLG

- binding [3]: binds
B5: 3F4 (antibody, human IgG2, lambda, V domains shown)
VH: B4 VH with T28I, W52S, R56S, E58K, R82Q
VL: B4 VL with R54N, G90E, V99G

- binding [1]: binds
Binder: RRQWGFWV [SR20]
